Compound in this test: Cc1cc(ccc1-c1ccccc1)C(=O)N1CCCN(CC1)C(=O)CCl [compound 10]
Briefly: probe-labelled cysteine peptide fold change vs DMSO (competition) (log2 fold change); higher = less target engagement (more negative = stronger competition). The note with it: THP-1, incubation time: 4 h.

Results on 8 targets are retold here after the supplement of paper PMC12067093, “Discovery and optimisation of a covalent ligand for TRIM25 and its application to targeted protein ubiquitination” (Chemical Science, 2025).

This is one part of the list.
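Further: competitive profiling in live THP-1 cells: cysteine peptides tagged with an iodoacetamide desthiobiotin (IA-DTB) probe, intensity after compound treatment relative to DMSO-treated cells.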

Regarding “CMTR1_Q8N1G2_504_SNESHCSLQIK (UniProt Q8N1G2)”, the “probe-labelled cysteine peptide fold change” value (10 µM) is 0.0273 and the “probe-labelled cysteine peptide fold change” value (50 µM) was -0.0233.

Take “CNBP_P62633_171_ECTIEATA (UniProt P62633)”: the “probe-labelled cysteine peptide fold change” value is, setting by setting: (10 µM) -0.182; (50 µM) 0.15.

Consider “COMMD9_Q9P000_47_KLLDVTCSSLSVTQEEAEELLQALHR (UniProt Q9P000)”, for which the “probe-labelled cysteine peptide fold change” value reads like this: (10 µM) 0.293; (50 µM) -0.214.

In the case of “CNBP_P62633_119+122_CYSCGEFGHIQK (UniProt P62633)”, the “probe-labelled cysteine peptide fold change” value (10 µM) is -0.085 and the “probe-labelled cysteine peptide fold change” value (50 µM) is -0.174.

Turning to “COQ5_Q5HYK3_170_VVVCDINK (UniProt Q5HYK3)”, the “probe-labelled cysteine peptide fold change” value is, setting by setting: (10 µM) 0.165; (50 µM) 0.15.

“CNTRL_Q7Z7A1_1423_HHEDIVDEIECIEK (UniProt Q7Z7A1)”: the “probe-labelled cysteine peptide fold change” value by setting is: (10 µM) 0.185; (50 µM) -0.246.

Consider “CNN2_Q99439_164_AGQCVIGLQMGTNK (UniProt Q99439)”, for which the “probe-labelled cysteine peptide fold change” value (10 µM) worked out at 0.136 and the “probe-labelled cysteine peptide fold change” value (50 µM) was -0.263.

On to “COG5_Q9UP83_716_LAADFAQMELAVGPFCR (UniProt Q9UP83)”, for which the “probe-labelled cysteine peptide fold change” value by setting is: (10 µM) 0.0536; (50 µM) 0.0957.
